No constants are given. Whether binding was seen depends on the method and setting. In cells and extracts the contact can be indirect. Some binding calls cover weakened binding; strength is not graded here.
Molecular target: integrin β1 (human (endogenous in Caco-2)) (UniProt P05556)
Test: co-IP

The chains behind the UniProt entries cited, without tags or fusion partners. Residues count along the entry.
UniProt P05556: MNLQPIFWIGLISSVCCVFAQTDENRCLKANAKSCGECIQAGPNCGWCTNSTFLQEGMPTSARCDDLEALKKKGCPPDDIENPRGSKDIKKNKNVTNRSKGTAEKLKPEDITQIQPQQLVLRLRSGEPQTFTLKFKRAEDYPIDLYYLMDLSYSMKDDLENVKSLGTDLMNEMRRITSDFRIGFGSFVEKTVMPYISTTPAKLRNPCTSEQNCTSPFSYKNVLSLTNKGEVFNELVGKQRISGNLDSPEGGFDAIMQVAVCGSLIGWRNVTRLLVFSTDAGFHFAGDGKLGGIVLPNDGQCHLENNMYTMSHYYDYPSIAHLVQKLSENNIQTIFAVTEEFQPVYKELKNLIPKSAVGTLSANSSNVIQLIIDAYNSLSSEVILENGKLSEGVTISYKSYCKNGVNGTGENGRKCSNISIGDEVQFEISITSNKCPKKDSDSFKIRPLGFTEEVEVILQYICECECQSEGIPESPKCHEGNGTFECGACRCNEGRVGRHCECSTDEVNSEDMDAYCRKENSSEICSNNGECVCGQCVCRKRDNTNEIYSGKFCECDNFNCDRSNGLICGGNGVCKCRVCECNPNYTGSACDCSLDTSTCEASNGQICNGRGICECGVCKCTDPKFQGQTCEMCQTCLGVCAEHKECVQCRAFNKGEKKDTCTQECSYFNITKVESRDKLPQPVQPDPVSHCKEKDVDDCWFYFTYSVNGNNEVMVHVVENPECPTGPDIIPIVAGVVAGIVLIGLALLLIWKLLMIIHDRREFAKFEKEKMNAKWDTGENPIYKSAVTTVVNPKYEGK
UniProt P43261, residues 40-934: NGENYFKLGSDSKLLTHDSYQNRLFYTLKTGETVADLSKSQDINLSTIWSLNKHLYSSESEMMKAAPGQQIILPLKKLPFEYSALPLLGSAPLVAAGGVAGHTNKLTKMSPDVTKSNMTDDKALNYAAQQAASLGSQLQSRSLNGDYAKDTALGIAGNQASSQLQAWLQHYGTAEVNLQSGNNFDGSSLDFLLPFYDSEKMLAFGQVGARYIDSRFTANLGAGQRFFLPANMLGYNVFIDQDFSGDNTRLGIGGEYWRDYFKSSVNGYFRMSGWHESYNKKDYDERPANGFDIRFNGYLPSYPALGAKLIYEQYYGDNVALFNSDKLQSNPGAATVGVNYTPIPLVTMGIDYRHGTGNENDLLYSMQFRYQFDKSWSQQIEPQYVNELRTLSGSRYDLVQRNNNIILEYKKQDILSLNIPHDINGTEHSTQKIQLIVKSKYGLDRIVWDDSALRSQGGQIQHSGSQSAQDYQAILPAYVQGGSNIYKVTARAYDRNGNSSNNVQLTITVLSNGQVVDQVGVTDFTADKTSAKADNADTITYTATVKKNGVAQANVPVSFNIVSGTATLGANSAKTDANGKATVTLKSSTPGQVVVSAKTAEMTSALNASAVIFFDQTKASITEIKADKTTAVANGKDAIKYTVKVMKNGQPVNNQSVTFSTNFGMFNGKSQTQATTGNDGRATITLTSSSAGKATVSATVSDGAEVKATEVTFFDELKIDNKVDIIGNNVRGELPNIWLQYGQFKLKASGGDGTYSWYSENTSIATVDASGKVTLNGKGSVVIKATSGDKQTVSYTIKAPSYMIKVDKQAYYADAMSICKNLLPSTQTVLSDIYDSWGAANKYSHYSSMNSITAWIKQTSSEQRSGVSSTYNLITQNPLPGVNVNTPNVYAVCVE

intimin (from UniProt P43261 40-934)
binding: binds

— PMC6343519
